Measured values reported in PMC10137428.
Results are given in words; binding and its absence hold for the method and conditions named. Binding seen in cells or lysates may run through a third protein. Some binding calls cover weakened binding; strength is not graded here.

Target: VSV-tagged RAF-1 (UniProt P04049)
Test: co-IP; VSV-tagged RAF-1 expressed from pcDNA5 in HEK 293T cells; VSV beads used to catch RAF-1-binding proteins; SODD detected by western blot

B1: Silencer of death domains (SODD; Bcl2-associated athanogene 4, BAG4) (protein, UniProt O95429 1-457)
chain: MSALRRSGYGPSDGPSYGRYYGPGGGDVPVHPPPPLYPLRPEPPQPPISWRVRGGGPAETTWLGEGGGGDGYYPSGGAWPEPGRAGGSHQEQPPYPSYNSNYWNSTARSRAPYPSTYPVRPELQGQSLNSYTNGAYGPTYPPGPGANTASYSGAYYAPGYTQTSYSTEVPSTYRSSGNSPTPVSRWIYPQQDCQTEAPPLRGQVPGYPPSQNPGMTLPHYPYGDGNRSVPQSGPTVRPQEDAWASPGAYGMGGRYPWPSSAPSAPPGNLYMTESTSPWPSSGSPQSPPSPPVQQPKDSSYPYSQSDQSMNRHNFPCSVHQYESSGTVNNDDSDLLDSQVQYSAEPQLYGNATSDHPNNQDQSSSLPEECVPSDESTPPSIKKIIHVLEKVQYLEQEVEEFVGKKTDKAYWLLEEMLTKELLELDSVETGGQDSVRQARKEAVCKIQAILEKLEKKGL
binding: binds
